Results deposited as PubChem BioAssay AID720505 (Drosophila RNAi Screening Center, 2013)

- Aim: 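Fly regulators or components of the CRAC channel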 (primary screen)
- Cells: Drosophila S2R+ cells
- Reagents: long dsRNA against Drosophila genes
- Treatment: thapsigargin (2 µM) in calcium-free buffer to empty internal stores, then 2 mM calcium added back
- Measurement: 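Stores emptied by 2 µM thapsigargin without calcium, then 2 mM calcium re-added; fluo-4 fluorescence followed by FLIPR in 384-well plates, per-well averaged endpoint, raw; two screen passes, some wells retested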
- Reading the numbers: calcium signal and retest calcium signal: higher = more calcium entry after store depletion
- Hit rule: 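About 1500 genes called as lowering calcium entry, by varying amounts, judged against per-plate control wells with STIM1 as positive and Rho1 as negative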
- Calls: active = called as lowering calcium entry; inactive = not called
In all, the deposit lists about 20,000 reagents; below is a random part of those with a known target gene and a result. Over the whole deposit, about 2,100 (10%) got an active call. 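Raw plate signals without normalisation; calls rest on control-based scores that were not deposited; replicate 2 separates called from uncalled poorly.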 Reagents against one gene are numbered here. Names joined by + are all predicted targets of the reagent. The record does not give: the amount of reagent, the time to read-out.

target	reagent	calcium signal, replicate 1	calcium signal, replicate 2	retest calcium signal, replicate 1	retest calcium signal, replicate 2	activity call
Nlg4 (Neuroligin 4)	1	149	96.9			inactive
Nlg4 (Neuroligin 4)	2	151	105			inactive
Nlg4 (Neuroligin 4)	3	147	109			inactive
Nlg4 (Neuroligin 4)	4	194	115			inactive
Nlg4 (Neuroligin 4)	5	33.9	190			active
CG1271	1	59.6	99			active
CG6262	1	169	179			inactive
CG6262	2	87.4	152			inactive
tap (target of Poxn)	1	59.8	116			inactive
CG7601	1	81.2	102			inactive
Mad	1	108	115			inactive
Gr59a (Gustatory receptor 59a)	1	296	117			inactive
yip2 (yippee interacting protein 2)	1	183	169			inactive
l(2)34Fc (lethal (2) 34Fc)	1	116	118			inactive
Mcm6 (Minichromosome maintenance 6)	1	221	105			inactive
m (miniature)	1	123	109			inactive
ND-B14.5AL (NADH dehydrogenase (ubiquinone) B14.5 A subunit-like)	1	103	243			inactive
Lsp1gamma (Larval serum protein 1 gamma)	1	156	145			inactive
CG15386 + CG42371	1	122	175			inactive
ced-6	1	61.1	61.7	161	126	active
Trp1 (Translocation protein 1)	1	66.7	79.1			active
l(3)87Df (lethal (3) 87Df)	1	123	124			inactive
Sps1 (Selenophosphate synthetase 1)	1	189	178			inactive
CG17991	1	143	146			inactive
mib2 (mind bomb 2)	1	119	133			inactive
ctrip (circadian trip)	1	109	95.3			inactive
ctrip (circadian trip)	2	108	126			inactive
ctrip (circadian trip)	3	113	182			inactive
Gas41	1	85.9	117			inactive
Rbp (RIM-binding protein)	1	79.9	124			inactive
Rbp (RIM-binding protein)	2	122	104			inactive
cid (centromere identifier)	1	107	161			inactive
cid (centromere identifier)	2	162	223			inactive
CG3817	1	117	100			inactive

Reformatted: results already given
| target | reagent | calcium signal, replicate 1 | calcium signal, replicate 2 | retest calcium signal, replicate 1 | retest calcium signal, replicate 2 | activity call |
| --- | --- | --- | --- | --- | --- | --- |
| l(2)34Fc (lethal (2) 34Fc) | 1 | 116 | 118 | – | – | inactive |
| Mcm6 (Minichromosome maintenance 6) | 1 | 221 | 105 | – | – | inactive |
| m (miniature) | 1 | 123 | 109 | – | – | inactive |
| ND-B14.5AL (NADH dehydrogenase (ubiquinone) B14.5 A subunit-like) | 1 | 103 | 243 | – | – | inactive |
| Lsp1gamma (Larval serum protein 1 gamma) | 1 | 156 | 145 | – | – | inactive |
| CG15386 + CG42371 | 1 | 122 | 175 | – | – | inactive |
